These are yes or no findings as the source states them, for the method shown. Some entries that bind do so weakly or less than the wild type.
Target: T1, human Igβ-Flag protein (human, UniProt P40259 29-159, limits assumed)
T1 construct: Expressed in FreeStyle 293 cells, purified from culture supernatant with anti-Flag M2 gel; not shown: Flag tag
T1 sequence (looked up): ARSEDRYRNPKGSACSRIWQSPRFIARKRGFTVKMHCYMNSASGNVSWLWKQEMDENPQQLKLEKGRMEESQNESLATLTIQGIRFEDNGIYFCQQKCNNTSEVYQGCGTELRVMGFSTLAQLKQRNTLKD
Experiment: antigen ELISA, Igβ-Flag coated on plate

Row | Binder | binding
1 | humanized antibody CL6_40m12_DDW (antibody, human IgG1, kappa, V domains shown, Humanized anti-human Igβ antibody) VH: EVQMVESGGGLVQPGGSLRLSCAVSGFSLSSYSVHWVRQAPGKGLEWVAGIWSGGSIHYTPALSSRFTVSRDDSKNTVYLQMNSLRAEDTAVYYCARYDRYETYAMDYWGQGTLVTVSS VL: DIQLTQSPSSLSASVGDRVTITCKASQSVDYDGDSYMNWYQQKPGKAPKLLIYAASNLESGVPSRFSGSGSGTDFTLTISSLQPEDFATYYCQQSNEDPLTFGQGTKVEIKR | binds
2 | humanized antibody CL6_40m16_DDW (antibody, human IgG1, kappa, V domains shown, Humanized anti-human Igβ antibody) VH: EVQLVESGGGLVQPGGSLRLSCAVSGFSLSSYSVHWFRKAPGKGLEWLGGIWSGGSIHYTPALSSRLTVSRDISKNTVYLQMNSLRAEDTAVYYCARYDRYETYAMDYWGQGTLVTVSS VL: DIVLTQSPSSLSASVGDRVTITCKASQSVDYDGDSYMNWYQQKPGKAPKLLIYAASNLESGVPSRFSGSGSGTDFTLTISSLQPEDFATYYCQQSNEDPLTFGQGTKVEIKR | binds

Reference: patent publication US20170226207A1 (Astellas, published 2017)
